Results: the supplement of paper PMC8728848
The other results are listed elsewhere or left out.

How the values were obtained:
Assay in all cases: glycan array binding signal (z-score within array); higher = stronger binding
Conditions in all cases: glycan notation: IUPAC condensed, linker removed
[1] = molecular target: Fuc(a1-2)Gal(b1-4)[Fuc(a1-3)]GlcNAc(b1-3)GalNAc
Method in brief: (§1)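 Glycan array data came from 3228 arrays in the Consortium for Functional Glycomics database, and only arrays with an available protein sequence were kept. Glycan names were put into IUPAC-condensed notation, and columns mapping to the same glycan were averaged. The binding signal is a within-array Z-score, averaged across arrays of one protein sequence run at different concentrations or buffers and across linkers. A negative Z-score can be read as non-binding.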

[2] = molecular target: Fuc(a1-2)Gal(b1-4)[Fuc(a1-3)]GlcNAc(b1-3)[Neu5Ac(a2-6)Gal(b1-4)GlcNAc(b1-6)]Gal(b1-4)Glc
Method in brief: as §1

[3] = molecular target: Fuc(a1-2)Gal3S(b1-4)GlcNAc
Method in brief: as §1

[4] = molecular target: Fuc(a1-2)Gal6S(b1-3)GlcNAc
Method in brief: as §1

[5] = molecular target: Fuc(a1-2)Gal6S(b1-3)GlcNAc6S
Method in brief: as §1

Fuc(a1-2)Gal6S(b1-4)Glc = molecular target: Fuc(a1-2)Gal6S(b1-4)Glc
Method in brief: as §1

[6] = molecular target: Fuc(a1-2)Gal6S(b1-4)Glc6S
Method in brief: as §1

[7] = molecular target: Fuc(a1-2)Gal6S(b1-4)GlcNAc
Method in brief: as §1

Fuc(a1-2)[Gal(a1-3)]Gal = molecular target: Fuc(a1-2)[Gal(a1-3)]Gal
Method in brief: as §1

[8] = molecular target: Fuc(a1-2)[Gal(a1-3)]Gal(b1-3)GalNAc
Method in brief: as §1

[9] = molecular target: Fuc(a1-2)[Gal(a1-3)]Gal(b1-3)GalNAc(b1-3)Gal(a1-4)Gal(b1-4)Glc
Method in brief: as §1

[10] = molecular target: Fuc(a1-2)[Gal(a1-3)]Gal(b1-3)GlcNAc
Method in brief: as §1

[11] = molecular target: Fuc(a1-2)[Gal(a1-3)]Gal(b1-3)GlcNAc(b1-2)Man(a1-3)[Fuc(a1-2)[Gal(a1-3)]Gal(b1-3)GlcNAc(b1-2)Man(a1-6)]Man(b1-4)GlcNAc(b1-4)GlcNAc
Method in brief: as §1

[12] = molecular target: Fuc(a1-2)[Gal(a1-3)]Gal(b1-3)GlcNAc(b1-2)Man(a1-3)[Fuc(a1-2)[Gal(a1-3)]Gal(b1-3)GlcNAc(b1-2)Man(a1-6)]Man(b1-4)GlcNAc(b1-4)[Fuc(a1-6)]GlcNAc
Method in brief: as §1

[13] = molecular target: Fuc(a1-2)[Gal(a1-3)]Gal(b1-3)GlcNAc(b1-3)GalNAc
Method in brief: as §1

[14] = molecular target: Fuc(a1-2)[Gal(a1-3)]Gal(b1-3)GlcNAc(b1-6)GalNAc
Method in brief: as §1

[15] = molecular target: Fuc(a1-2)[Gal(a1-3)]Gal(b1-4)Glc
Method in brief: as §1

[16] = molecular target: Fuc(a1-2)[Gal(a1-3)]Gal(b1-4)GlcNAc
Method in brief: as §1

[17] = molecular target: Fuc(a1-2)[Gal(a1-3)]Gal(b1-4)GlcNAc(b1-2)Man
Method in brief: as §1

[18] = molecular target: Fuc(a1-2)[Gal(a1-3)]Gal(b1-4)GlcNAc(b1-2)Man(a1-3)[Fuc(a1-2)[Gal(a1-3)]Gal(b1-4)GlcNAc(b1-2)Man(a1-6)]Man(b1-4)GlcNAc(b1-4)GlcNAc
Method in brief: as §1

[19] = molecular target: Fuc(a1-2)[Gal(a1-3)]Gal(b1-4)GlcNAc(b1-2)Man(a1-3)[Fuc(a1-2)[Gal(a1-3)]Gal(b1-4)GlcNAc(b1-2)Man(a1-6)]Man(b1-4)GlcNAc(b1-4)[Fuc(a1-6)]GlcNAc
Method in brief: as §1

[20] = molecular target: Fuc(a1-2)[Gal(a1-3)]Gal(b1-4)GlcNAc(b1-3)GalNAc
Method in brief: as §1

[21] = molecular target: Fuc(a1-2)[Gal(a1-3)]Gal(b1-4)GlcNAc(b1-3)[Fuc(a1-2)[Gal(a1-3)]Gal(b1-4)GlcNAc(b1-6)]GalNAc
Method in brief: as §1

[22] = molecular target: Fuc(a1-2)[Gal(a1-3)]Gal(b1-4)GlcNAc(b1-6)GalNAc
Method in brief: as §1

[23] = molecular target: Fuc(a1-2)[Gal(a1-3)]Gal(b1-4)[Fuc(a1-3)]Glc
Method in brief: as §1

[24] = molecular target: Fuc(a1-2)[Gal(a1-3)]Gal(b1-4)[Fuc(a1-3)]GlcNAc
Method in brief: as §1

[25] = molecular target: Fuc(a1-2)[Gal(a1-3)]Gal(b1-4)[Fuc(a1-3)]GlcNAc(b1-3)GalNAc
Method in brief: as §1

[26] = molecular target: Fuc(a1-2)[Gal(a1-4)]Gal(b1-4)GlcNAc
Method in brief: as §1

[27] = molecular target: Fuc(a1-2)[GalNAc(a1-3)]Gal
Method in brief: as §1

[28] = molecular target: Fuc(a1-2)[GalNAc(a1-3)]Gal(b1-3)GalNAc(a1-3)[Fuc(a1-2)]Gal(b1-4)GlcNAc
Method in brief: as §1

[29] = molecular target: Fuc(a1-2)[GalNAc(a1-3)]Gal(b1-3)GalNAc(b1-3)Gal(a1-4)Gal(b1-4)Glc
Method in brief: as §1

[30] = molecular target: Fuc(a1-2)[GalNAc(a1-3)]Gal(b1-3)GlcNAc
Method in brief: as §1

[31] = molecular target: Fuc(a1-2)[GalNAc(a1-3)]Gal(b1-3)GlcNAc(b1-2)Man(a1-3)[Fuc(a1-2)[GalNAc(a1-3)]Gal(b1-3)GlcNAc(b1-2)Man(a1-6)]Man(b1-4)GlcNAc(b1-4)GlcNAc
Method in brief: as §1

[32] = molecular target: Fuc(a1-2)[GalNAc(a1-3)]Gal(b1-3)GlcNAc(b1-2)Man(a1-3)[Fuc(a1-2)[GalNAc(a1-3)]Gal(b1-3)GlcNAc(b1-2)Man(a1-6)]Man(b1-4)GlcNAc(b1-4)[Fuc(a1-6)]GlcNAc
Method in brief: as §1

[33] = molecular target: Fuc(a1-2)[GalNAc(a1-3)]Gal(b1-3)GlcNAc(b1-3)GalNAc
Method in brief: as §1

[34] = molecular target: Fuc(a1-2)[GalNAc(a1-3)]Gal(b1-3)GlcNAc(b1-6)GalNAc
Method in brief: as §1

[35] = molecular target: Fuc(a1-2)[GalNAc(a1-3)]Gal(b1-4)Glc
Method in brief: as §1

[36] = molecular target: Fuc(a1-2)[GalNAc(a1-3)]Gal(b1-4)GlcNAc
Method in brief: as §1

[37] = molecular target: Fuc(a1-2)[GalNAc(a1-3)]Gal(b1-4)GlcNAc(b1-2)Man
Method in brief: as §1

[38] = molecular target: Fuc(a1-2)[GalNAc(a1-3)]Gal(b1-4)GlcNAc(b1-2)Man(a1-3)[Fuc(a1-2)[GalNAc(a1-3)]Gal(b1-4)GlcNAc(b1-2)Man(a1-6)]Man(b1-4)GlcNAc(b1-4)GlcNAc
Method in brief: as §1

[39] = molecular target: Fuc(a1-2)[GalNAc(a1-3)]Gal(b1-4)GlcNAc(b1-2)Man(a1-3)[Fuc(a1-2)[GalNAc(a1-3)]Gal(b1-4)GlcNAc(b1-2)Man(a1-6)]Man(b1-4)GlcNAc(b1-4)[Fuc(a1-6)]GlcNAc
Method in brief: as §1

[40] = molecular target: Fuc(a1-2)[GalNAc(a1-3)]Gal(b1-4)GlcNAc(b1-3)Gal(b1-4)GlcNAc
Method in brief: as §1

[41] = molecular target: Fuc(a1-2)[GalNAc(a1-3)]Gal(b1-4)GlcNAc(b1-3)Gal(b1-4)GlcNAc(b1-3)Gal(b1-4)GlcNAc
Method in brief: as §1

[42] = molecular target: Fuc(a1-2)[GalNAc(a1-3)]Gal(b1-4)GlcNAc(b1-3)GalNAc
Method in brief: as §1

[43] = molecular target: Fuc(a1-2)[GalNAc(a1-3)]Gal(b1-4)GlcNAc(b1-3)[Fuc(a1-2)[GalNAc(a1-3)]Gal(b1-4)GlcNAc(b1-6)]GalNAc
Method in brief: as §1

B1: GST-Gap1 (Streptococcus parasanguinis), A1C3L5 (protein)
chain: MFYFVPSWYNGQRQWYYDTPWWFRVKNRMTFDDSVNQVKMFLQGQEEIGLMILNYQPQLRYFLHKQNIFGIYYWSFFDDIQNITRSYTKIIHLKDLNWPEGCEFLYSPFAVVVRLKGEIFAIVNYAEDGNLHSVSFQKNGKVTKDYIFDDRGFLSSILYYDIDERPLYQDYLNINGVWQVREFLKKENDPTPILMINDFSDQTFSKKYYNGWEELIKERLAIFQNNHVENEDVFVLASDTQHNQLVSSIFKEHRKIYSFFGNRFNLENLGQDRISINDATFLVVDTEKNEELLRKTCENLVFKSIPIVRLSPFDSRLRLGHSQTVKEQIIYFHIDNIELDELYSVIAIILELMTLHLDIELRIVTFRQDFQLDLLKTWIIDFIKTNHFEDLLFKQISEGENEIEDEGEIELSRIAMECFTNENQIIKCLDTARLVIDLGIEPDLYTQIASISAGIPQINRVSSDYVIHQKNGLVISDISKLSSAIEFYFDGLFNWNEALIYAVRKMSDYTSGKILKQWKGMLKKK
glycan array binding signal (z-score) [1]: 1.32 | glycan array binding signal (z-score) [2]: -1.17 | glycan array binding signal (z-score) [3]: -2.1 | glycan array binding signal (z-score) [4]: -2.38 | glycan array binding signal (z-score) [5]: 0.23 | glycan array binding signal (z-score) (Fuc(a1-2)Gal6S(b1-4)Glc): -0.647 | glycan array binding signal (z-score) [6]: -0.485 | glycan array binding signal (z-score) [7]: 0.071 | glycan array binding signal (z-score) (Fuc(a1-2)[Gal(a1-3)]Gal): 0.075 | glycan array binding signal (z-score) [8]: 0.925 | glycan array binding signal (z-score) [9]: -0.517 | glycan array binding signal (z-score) [10]: 0.152 | glycan array binding signal (z-score) [11]: 0.483 | glycan array binding signal (z-score) [12]: 0.533 | glycan array binding signal (z-score) [13]: -0.222 | glycan array binding signal (z-score) [14]: -1.19 | glycan array binding signal (z-score) [15]: -0.284 | glycan array binding signal (z-score) [16]: -0.454 | glycan array binding signal (z-score) [17]: -0.05 | glycan array binding signal (z-score) [18]: -0.478 | glycan array binding signal (z-score) [19]: -0.111 | glycan array binding signal (z-score) [20]: -0.867 | glycan array binding signal (z-score) [21]: 1.04 | glycan array binding signal (z-score) [22]: -0.203 | glycan array binding signal (z-score) [23]: -0.065 | glycan array binding signal (z-score) [24]: 0.117 | glycan array binding signal (z-score) [25]: -0.784 | glycan array binding signal (z-score) [26]: 0.497 | glycan array binding signal (z-score) [27]: -0.403 | glycan array binding signal (z-score) [28]: -0.423 | glycan array binding signal (z-score) [29]: 0.018 | glycan array binding signal (z-score) [30]: 0.637 | glycan array binding signal (z-score) [31]: -0.372 | glycan array binding signal (z-score) [32]: -0.842 | glycan array binding signal (z-score) [33]: -0.497 | glycan array binding signal (z-score) [34]: -0.599 | glycan array binding signal (z-score) [35]: -0.272 | glycan array binding signal (z-score) [36]: -0.587 | glycan array binding signal (z-score) [37]: -0.694 | glycan array binding signal (z-score) [38]: -0.123 | glycan array binding signal (z-score) [39]: 1.1 | glycan array binding signal (z-score) [40]: -0.25 | glycan array binding signal (z-score) [41]: -0.457 | glycan array binding signal (z-score) [42]: 0.385 | glycan array binding signal (z-score) [43]: -0.282
